In assay [1] the target is p65 subunit of NF-κB (mouse (endogenous in C2C12)) (UniProt Q04207). As to the kind of experiment: co-IP; nuclear and cytoplasmic fractions of C2C12 myotubes treated or not with IFNγ/TNFα; antibody (total STAT3, p65 or IgG control) on protein A Sepharose beads, lysates overnight at 4°C, washed once with low salt and twice with medium salt buffer; Western blot for total STAT3, pY-STAT3 and p65. (Immunoblotting shows a protein as a band on a membrane.)

Protein sequences, listed by entry. Tags and fused reporters are not part of them.
UniProt Q04207: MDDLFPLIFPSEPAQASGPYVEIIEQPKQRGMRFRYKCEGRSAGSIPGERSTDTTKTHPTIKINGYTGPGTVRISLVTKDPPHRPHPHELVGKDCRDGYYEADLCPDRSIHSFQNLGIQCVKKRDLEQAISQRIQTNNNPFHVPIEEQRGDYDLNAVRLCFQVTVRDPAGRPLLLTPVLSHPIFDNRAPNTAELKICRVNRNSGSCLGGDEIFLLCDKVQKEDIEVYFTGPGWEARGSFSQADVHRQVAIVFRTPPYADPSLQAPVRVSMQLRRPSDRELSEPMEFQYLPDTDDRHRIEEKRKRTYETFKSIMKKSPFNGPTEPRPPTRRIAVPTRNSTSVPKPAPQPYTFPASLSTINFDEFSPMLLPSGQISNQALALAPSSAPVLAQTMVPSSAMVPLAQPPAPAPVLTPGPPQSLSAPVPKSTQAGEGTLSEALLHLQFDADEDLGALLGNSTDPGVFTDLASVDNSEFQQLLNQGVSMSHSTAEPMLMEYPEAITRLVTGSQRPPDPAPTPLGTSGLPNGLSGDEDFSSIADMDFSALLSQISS
UniProt P42227: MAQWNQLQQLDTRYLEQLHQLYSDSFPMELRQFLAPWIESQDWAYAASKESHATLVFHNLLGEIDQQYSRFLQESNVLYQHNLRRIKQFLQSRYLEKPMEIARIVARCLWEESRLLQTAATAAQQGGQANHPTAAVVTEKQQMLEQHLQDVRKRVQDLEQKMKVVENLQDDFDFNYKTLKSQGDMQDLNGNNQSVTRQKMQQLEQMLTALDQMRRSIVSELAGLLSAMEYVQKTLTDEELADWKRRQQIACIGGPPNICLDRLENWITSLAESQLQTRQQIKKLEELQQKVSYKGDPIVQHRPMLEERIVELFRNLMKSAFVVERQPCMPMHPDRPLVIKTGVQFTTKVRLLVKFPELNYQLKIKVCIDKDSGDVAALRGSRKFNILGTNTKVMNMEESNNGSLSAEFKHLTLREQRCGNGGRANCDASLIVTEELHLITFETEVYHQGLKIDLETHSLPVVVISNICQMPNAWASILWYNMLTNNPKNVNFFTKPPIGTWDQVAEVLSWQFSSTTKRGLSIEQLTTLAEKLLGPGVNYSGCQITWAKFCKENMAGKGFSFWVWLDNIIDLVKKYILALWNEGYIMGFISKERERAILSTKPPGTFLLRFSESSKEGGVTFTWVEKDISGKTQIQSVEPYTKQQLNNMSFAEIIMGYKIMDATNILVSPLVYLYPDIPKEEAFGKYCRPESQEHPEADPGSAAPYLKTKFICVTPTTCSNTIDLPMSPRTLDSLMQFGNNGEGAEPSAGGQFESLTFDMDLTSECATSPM

Assay [2] deals with Signal transducer and activator of transcription 3 (STAT3) (mouse (endogenous in C2C12)) (UniProt P42227). Described as above.

Consider three substances from paper PMC5412921.

Results are given in words; binding and its absence hold for the method and conditions named. In cells and extracts the contact can be indirect. Some binding calls cover weakened binding; strength is not graded here.

Consider “Signal transducer and activator of transcription 3 (STAT3) (from UniProt P42227 1-770)”, for which the binding result in assay [1] is reported as “binds”.
For the substance “STAT3 phosphorylated on Tyr705 (pY-STAT3) (from UniProt P42227 1-770)”, the binding result in assay [1] is given as “binds”.
Take “p65 subunit of NF-κB (from UniProt Q04207 1-549)”: the binding entry in assay [2] was “binds”.
